Among the data in article PMC7862700 are binding signal values, retold here.

Sequences of proteins named here, by UniProt entry; tags and fusion partners are left off. A change or cut given only in a name is not applied to a line headed by its entry.
UniProt Q01892: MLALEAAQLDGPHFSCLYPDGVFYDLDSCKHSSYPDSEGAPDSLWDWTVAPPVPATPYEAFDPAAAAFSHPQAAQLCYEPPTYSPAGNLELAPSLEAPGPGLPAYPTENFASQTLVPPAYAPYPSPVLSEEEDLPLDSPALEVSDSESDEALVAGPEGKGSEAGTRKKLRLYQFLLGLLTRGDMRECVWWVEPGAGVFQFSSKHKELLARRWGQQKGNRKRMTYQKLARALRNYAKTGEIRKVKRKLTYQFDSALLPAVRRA
UniProt P41161: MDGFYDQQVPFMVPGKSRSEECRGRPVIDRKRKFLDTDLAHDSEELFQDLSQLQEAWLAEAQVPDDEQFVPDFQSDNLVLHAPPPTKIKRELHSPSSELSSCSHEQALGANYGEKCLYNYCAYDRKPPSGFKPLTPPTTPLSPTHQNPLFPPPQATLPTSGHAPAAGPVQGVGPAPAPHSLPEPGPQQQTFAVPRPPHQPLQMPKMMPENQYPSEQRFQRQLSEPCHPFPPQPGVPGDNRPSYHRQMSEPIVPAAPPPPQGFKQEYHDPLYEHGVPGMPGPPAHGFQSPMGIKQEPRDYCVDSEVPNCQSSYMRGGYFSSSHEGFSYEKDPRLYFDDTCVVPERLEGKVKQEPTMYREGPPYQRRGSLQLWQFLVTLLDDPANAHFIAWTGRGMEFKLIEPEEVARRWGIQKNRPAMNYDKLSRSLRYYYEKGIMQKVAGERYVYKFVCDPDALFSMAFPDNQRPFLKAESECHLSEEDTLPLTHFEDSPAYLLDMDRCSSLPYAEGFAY
UniProt Q99607: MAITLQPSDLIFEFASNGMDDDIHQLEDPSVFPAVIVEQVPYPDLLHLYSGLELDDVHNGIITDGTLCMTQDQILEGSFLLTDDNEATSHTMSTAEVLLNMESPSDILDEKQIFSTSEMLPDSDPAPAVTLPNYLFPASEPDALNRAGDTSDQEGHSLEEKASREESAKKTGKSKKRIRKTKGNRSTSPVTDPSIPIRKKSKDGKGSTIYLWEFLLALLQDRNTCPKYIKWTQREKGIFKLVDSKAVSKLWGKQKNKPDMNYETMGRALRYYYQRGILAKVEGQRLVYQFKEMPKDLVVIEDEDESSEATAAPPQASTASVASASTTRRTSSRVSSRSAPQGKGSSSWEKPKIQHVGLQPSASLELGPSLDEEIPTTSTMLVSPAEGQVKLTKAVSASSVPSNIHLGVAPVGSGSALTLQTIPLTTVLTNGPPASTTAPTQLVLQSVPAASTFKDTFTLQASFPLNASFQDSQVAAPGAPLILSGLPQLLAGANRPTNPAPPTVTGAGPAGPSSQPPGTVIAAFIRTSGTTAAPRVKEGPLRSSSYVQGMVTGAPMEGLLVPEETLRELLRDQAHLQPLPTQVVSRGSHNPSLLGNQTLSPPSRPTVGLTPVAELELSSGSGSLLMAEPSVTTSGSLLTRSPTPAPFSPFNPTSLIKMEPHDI

Only a part is listed here, and it is no random draw. At the low end of the ranking, values are background and their order means little.

Some targets named below: SPIB (UniProt Q01892); ETV5 (UniProt P41161); ELF4 (UniProt Q99607).
Holding throughout (assay): DAPPL (digital affinity profiling via proximity ligation, sequencing)
Conditions in all cases: 10 mM Tris-HCl pH 7.5, 50 mM NaCl, 1 mM DTT, 4% glycerol, room temperature, 30 min; GST-TFs on glutathione beads, 16-mer random dsDNA library, 0.1% …; high values mean tight binding; double strand, one strand shown; scale: fold enrichment (6-mer frequency, TF over GST control)

For a further assay, the target named is T1, FLI1 (UniProt Q01543).
T1 sequence: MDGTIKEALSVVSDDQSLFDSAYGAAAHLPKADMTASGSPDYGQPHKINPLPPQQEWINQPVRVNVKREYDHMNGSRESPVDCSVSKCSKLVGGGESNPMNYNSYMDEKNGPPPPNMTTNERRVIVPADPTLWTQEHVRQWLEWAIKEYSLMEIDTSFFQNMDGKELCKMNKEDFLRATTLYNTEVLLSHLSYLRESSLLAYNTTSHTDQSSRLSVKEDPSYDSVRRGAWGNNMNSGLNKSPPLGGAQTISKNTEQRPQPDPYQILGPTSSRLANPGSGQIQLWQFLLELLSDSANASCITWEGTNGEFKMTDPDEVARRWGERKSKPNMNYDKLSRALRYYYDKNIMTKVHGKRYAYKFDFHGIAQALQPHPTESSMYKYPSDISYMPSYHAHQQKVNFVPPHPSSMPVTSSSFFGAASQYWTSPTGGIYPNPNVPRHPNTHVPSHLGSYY

A further assay concerns the target T2, EHF (UniProt Q9NZC4).
T2 sequence: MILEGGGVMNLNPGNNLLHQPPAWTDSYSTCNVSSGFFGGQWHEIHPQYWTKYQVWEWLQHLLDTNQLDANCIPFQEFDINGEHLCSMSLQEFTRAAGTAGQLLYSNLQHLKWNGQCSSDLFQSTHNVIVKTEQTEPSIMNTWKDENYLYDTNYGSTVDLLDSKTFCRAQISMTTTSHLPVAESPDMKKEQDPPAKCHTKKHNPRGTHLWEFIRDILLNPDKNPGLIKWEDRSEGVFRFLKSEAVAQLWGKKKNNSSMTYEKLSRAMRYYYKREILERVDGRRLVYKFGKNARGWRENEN

Another assay deals with T3, ETV2 (UniProt O00321).
T3 sequence: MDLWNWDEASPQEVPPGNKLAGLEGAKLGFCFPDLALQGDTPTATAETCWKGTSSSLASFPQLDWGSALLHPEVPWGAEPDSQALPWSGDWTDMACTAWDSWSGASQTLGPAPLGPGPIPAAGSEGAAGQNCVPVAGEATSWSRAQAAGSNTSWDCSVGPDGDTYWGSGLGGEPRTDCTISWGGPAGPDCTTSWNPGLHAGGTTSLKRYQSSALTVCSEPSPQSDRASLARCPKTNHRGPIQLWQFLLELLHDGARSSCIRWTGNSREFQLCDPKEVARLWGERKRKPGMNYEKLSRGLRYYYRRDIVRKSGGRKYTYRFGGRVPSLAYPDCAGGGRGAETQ

The next assay deals with T4, ETV3L (UniProt Q6ZN32).
T4 sequence: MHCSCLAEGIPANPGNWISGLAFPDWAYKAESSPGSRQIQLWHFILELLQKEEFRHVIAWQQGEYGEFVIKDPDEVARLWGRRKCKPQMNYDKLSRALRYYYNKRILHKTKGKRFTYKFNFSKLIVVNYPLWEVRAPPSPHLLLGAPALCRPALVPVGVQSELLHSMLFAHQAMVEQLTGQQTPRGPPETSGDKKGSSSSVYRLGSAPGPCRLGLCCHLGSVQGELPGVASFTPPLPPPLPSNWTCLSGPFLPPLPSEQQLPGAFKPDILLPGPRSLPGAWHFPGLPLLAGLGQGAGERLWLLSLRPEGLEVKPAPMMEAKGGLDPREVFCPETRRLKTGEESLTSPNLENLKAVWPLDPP

For the sequence AGGTTC, the binding signal came out at 0.874 with FLI1; 0.808 with EHF; 0.867 with SPIB; 0.847 with ETV5; 0.828 in the assay with ELF4; 0.91 in the assay with ETV2. In the assay with ETV3L, this sequence came in with a binding signal of 0.811.

Take ACCAAG: the binding signal in the assay with FLI1 is 0.907; in the assay with EHF, 0.906; with SPIB it was 0.834; with ETV5 it was 0.91; with ELF4, 0.973; in the assay with ETV2, 0.939. In the assay with ETV3L, this sequence yielded a binding signal of 0.931.

Consider AGTAGC, for which the binding signal with FLI1 is 0.969; in the assay with SPIB, 0.955; with ETV5, 0.998; with ELF4 it was 0.919; in the assay with ETV2, 0.86; with ETV3L, 0.931.

Regarding ACAAGG, the binding signal in the assay with FLI1 stood at 0.951; with SPIB, 0.926; with ETV5, 0.944; with ELF4, 0.926; with ETV2, 0.923; in the assay with ETV3L it was 0.964.

Take TGAAGC: the binding signal with FLI1 amounted to 0.963; with SPIB, 0.942; with ETV5, 1.01; in the assay with ELF4, 0.995; with ETV2, 0.934; with ETV3L it was 0.953.

With TTCGGG, the binding signal with FLI1 turned out to be 0.953; in the assay with EHF, 0.875; with SPIB, 0.892; with ETV5, 0.859; in the assay with ELF4, 0.929; with ETV2, 0.706. The same sequence displayed a binding signal with ETV3L of 0.982.

Consider TGTAGA, for which the binding signal with FLI1 is 0.958; with EHF, 0.93; in the assay with SPIB, 0.907; in the assay with ETV5 it was 0.93; with ELF4 it was 0.977; in the assay with ETV2 it was 0.96. Also, the binding signal in the assay with ETV3L turned out to be 0.911.

Regarding TTAGGA, the binding signal in the assay with FLI1 turned out to be 0.86; with SPIB, 0.936; in the assay with ETV5, 0.915; with ELF4, 0.92; in the assay with ETV2, 0.964; in the assay with ETV3L, 0.869.

For the sequence AATCGT, the binding signal with FLI1 was found to be 0.899; in the assay with EHF it was 0.872; with SPIB, 0.861; in the assay with ETV5, 0.888; with ELF4, 0.903; with ETV2, 0.876. This sequence also returned a binding signal in the assay with ETV3L of 0.97.

Regarding CAGATC, the binding signal in the assay with FLI1 is 0.92; in the assay with EHF, 0.958; with SPIB, 0.888; in the assay with ETV5 it was 0.863; in the assay with ELF4, 0.99; in the assay with ETV2, 1.02. In the assay with ETV3L, this sequence yielded a binding signal of 0.913.

Turning to GTGGAT, the binding signal with FLI1 stood at 0.829; with EHF it was 0.921; with SPIB it was 0.937; with ETV5, 0.961; with ELF4, 0.92; with ETV2, 0.872. Also, the binding signal with ETV3L stood at 0.993.

As for AGCGAA, the binding signal was 0.939 with FLI1; 0.907 with SPIB; 0.909 with ETV5; 0.894 with ELF4; 0.783 with ETV2; 0.901 with ETV3L.

For GAAGAT, the binding signal came out at 0.883 with FLI1; 0.918 in the assay with EHF; 0.898 with SPIB; 0.931 in the assay with ETV5; 0.916 with ELF4; 0.966 with ETV2. In the assay with ETV3L, the binding signal is 0.898.

Take GCCGGA: the binding signal in the assay with FLI1 is 0.985; with EHF, 1.08; with SPIB it was 1.01; with ETV5, 1.16; with ELF4, 0.928; with ETV2 it was 0.907. Moreover, in the assay with ETV3L, the binding signal was found to be 0.993.

As for GCGAAC, the binding signal is 0.888 in the assay with FLI1; 0.873 with EHF; 0.935 in the assay with SPIB; 0.961 with ETV5; 0.943 with ELF4; 0.947 with ETV2. Moreover, the binding signal with ETV3L amounted to 0.897.

Regarding TAAGAG, the binding signal in the assay with FLI1 was 0.874; in the assay with EHF, 0.953; with SPIB, 0.89; in the assay with ETV5 it was 0.861; with ELF4, 0.908; in the assay with ETV2, 0.86. In the assay with ETV3L, this sequence yielded a binding signal of 0.91.
